# Library screening results

Mtb growth Cornell: 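Whole-cell assay for inhibitors of Mycobacterium tuberculosis growth, labelled Cornell in the record; the read-out is not stated. The concentration is filed as 10 mM, unlikely as a test dose, so the dose is not known. Higher means stronger inhibition (inferred from two other growth screens of the library). About 53,000 compounds were tested under these conditions; 1.7% (about 900) showed 50% or more at least once.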
Mtb heat-shock: 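Assay on Mycobacterium tuberculosis, filed only as a heat shock assay from Cornell; the read-out is not stated. The concentration is filed as 10 mM, unlikely as a test dose, so the dose is not known. Direction is inferred from retests: higher values go with stronger inhibition. Size under these conditions: about 69,000 compounds, about 930 of them at 50% or above in at least one test.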

Each number is a percent effect as filed. The controls that fix the scale are not given in the record; negative values are as filed. The compounds are a random part of those screened. A dash means the value is not listed here; it may have been measured.

structure,Mtb growth Cornell,Mtb heat-shock
O=C1Nc2ccccc2CNC12CCN(CC1CCCC1)CC2,-,-25.65
CN(C)CC1CN(Cc2nc(-c3ccccn3)no2)CCO1 (stereo not drawn),-,-10.87
CC(C)N1CC(C(=O)NCc2ccnc(-n3cccn3)c2)CC1=O (stereo not drawn),-47.24,-2.198
CSc1nc2cc(C)n(CC(=O)Nc3nccs3)c2c(=O)n1CC(C)C,11.95,17.33
[H][C@@]12CN(C(=O)C3CCOC3)C[C@]1([H])C(=O)N(Cc1cccc(F)c1)C2 (stereo partly drawn),15,8.607
CN1CCN(c2ccccc2NC(=O)NCCc2ccc(O)cc2)CC1,31.18,-16.23
CCOC(=O)C1CCN(C(=O)CN2CCCC2c2ccccc2C)CC1 (stereo not drawn),25.2,6.594
CCn1cc(S(=O)(=O)Nc2nc3c(s2)CCCC3)cn1,18.18,-19.38
COc1cc(NC(=O)NCCO)ccc1N1CCOC1=O,14.78,4.393
COCCOCC(=O)N1CCC(c2ccccc2F)C1 (stereo not drawn),26.46,20.18
CN(Cc1noc(C2CC2)n1)C1CCN(Cc2ncc[nH]2)C1 (stereo not drawn),-,18.09
CC(C)CC(=O)N1CCC(c2nnc3n2CCCCC3)CC1,-31.85,3.202
O=C1CC(c2ccccc2)c2snc(C(=O)O)c2N1 (stereo not drawn),-,-6.598
CNS(=O)(=O)CC1CCCN1c1ccccn1 (stereo not drawn),-,-12.09
COc1cccc2c1OCCCN(c1nc(C)nc3c1CCNCC3)C2,24.36,1.643
Cl.O=C(O)CC1CN(Cc2ccccc2)CCO1 (stereo not drawn),2.965,70.76
CCN1CC2(CC1=O)CN(Cc1ccncc1)CCN(C(=O)C(C)C)C2.O=C(O)C(F)(F)F.O=C(O)C(F)(F)F (stereo not drawn),-17.86,-28.97
O=C(O)C(F)(F)F.[H][C@@]12COC[C@]1(CNS(C)(=O)=O)CN(CC1CCC1)C2,-21.91,33.86
CC(C(N)=O)N(C)CCCc1cc(-c2ccc(F)cc2)n(C)n1 (stereo not drawn),15.65,22.06
O=C(NC1(c2cccc(F)c2)CCOCC1)c1ccoc1,7.922,17.26
O=C(CN1CCOC(Cn2cccn2)C1)Nc1cccnc1 (stereo not drawn),-24.96,-17.41
CC(=O)NCCC1CCN(c2nc(C(C)(C)C)nc3c2cnn3C)CC1,40.97,-10.95
O=C(CNC(=O)Nc1cccc(Cl)c1SC(F)F)NC1CC1,14.32,-4.44
CC(=O)N(C)CC(=O)NC1(c2ccc(Cl)c(Cl)c2)CC1,25.61,-14.8
COc1c(Br)c(C(=O)NC2CCCCC2)nn1C,28.76,-24.89
COc1nn(C)c2c1CCCN(C(=O)c1cscn1)C2,-13.61,13.31
CCN(CC1CCOC1)S(=O)(=O)Cc1cc(Cl)ccc1OC (stereo not drawn),-,-9.632
CCn1nc(C(=O)N2CCCC2c2noc(C3CC3)n2)ccc1=O (stereo not drawn),-55.83,-39.64
CS(=O)(=O)CCC(=O)NC1(c2cccc(C(F)(F)F)c2)CCC1,11.84,-20.78
CC(NCc1ccc(OCC(N)=O)cc1)c1ccc(Cl)cc1.Cl (stereo not drawn),-10.12,-23.84
CC(C)(NC(=O)Cc1ccccc1F)C(C)(C)C(=O)O,10.51,5.542
Cc1nn(C)c(C)c1C1CCCN1c1ncnc2c1CCC2 (stereo not drawn),-,3.899
O=C(NCC1CCC2(CC1)OCCO2)c1ccncc1F,14.01,2.952
CC(=O)c1cc(CC(=O)N2CCN(S(=O)(=O)c3ccccc3)CC2)cs1,-,-12.8
COC(=O)C1CCN(C(=O)NCC(C)Cc2cccs2)CC1 (stereo not drawn),-,-1.193
CCC(CC)n1nc(C)cc1NC(=O)CC1CCOCC1,-15.26,15.89
Cc1nc2n(n1)CC(NCC(=O)NCCCOC(C)C)CC2 (stereo not drawn),-12.22,4.054
CCS(=O)(=O)NCC1OCCc2cn(CCOC)nc21 (stereo not drawn),-26.01,5.466
Cc1nn(C)c(C)c1C1COCCN1C(=O)c1n[nH]c2ccccc12 (stereo not drawn),-3.937,7.035
COc1cc(-c2cnnc(NCCSC)n2)cc(OC)c1OC,-7.803,11.04
Cc1ncsc1CCN(C)C(=O)CN1CCOC1=O,-0.9828,-15.97
N#CC1(NC(=O)COc2cc(Cl)cc(Cl)c2)CCOCC1,-,-8.17
CCc1nc(CN(C)C2CCN(CCn3cccn3)C2)no1 (stereo not drawn),-20.57,1.205
CCOc1ccc(CC(CNC(=O)c2ccco2)C(N)=O)cc1 (stereo not drawn),-11.05,-6.413
O=C(NCc1ccoc1)Nc1ccc(CN2CCOC2=O)cc1,-5.251,12.72
O=C(Nc1ccccc1C(=O)N1CCCC1)NC1CCOCC1,-,-4.603
Cc1cc(F)cc(S(=O)(=O)Nc2ccn(CCCC#N)n2)c1,-1.026,3.081
N#Cc1cccc(OCC(=O)N(Cc2ccncc2)C2CC2)c1,44.03,-24.4
Cc1nc(Nc2nncs2)cc(C2CCCN2)n1.Cl (stereo not drawn),-7.16,5.522
CC(c1ccco1)N(C(=O)Cn1nc2n(c1=O)CCCCC2)C1CC1 (stereo not drawn),-22.74,-8.937
CC(C)N1CCC(N2CCN(C3CCC3)CC2CCO)CC1 (stereo not drawn),4.772,2.443
COC(=O)N1CCCC(NC(=O)NCc2nc(C)cs2)C1 (stereo not drawn),23.29,-23.47
Cc1nc[nH]c1-c1nc2cc(S(=O)(=O)N3CCCC3)ccc2n1C,-44.68,7.19
CCN1CC(COC(=O)c2ccc(Br)cc2F)CC1=O (stereo not drawn),20.74,-33.86
CC(C)CN(C(=O)COc1ccc(C(N)=O)cc1)C1CCN(C)CC1,-0.04637,-12
Cc1ccc(CN2CCOC3(COCCN(C(C)C)C3)C2)o1.O=C(O)C(F)(F)F.O=C(O)C(F)(F)F (stereo not drawn),3.418,-0.6499
Cc1nnc(C(C)NCC2(c3c(F)cccc3F)CCCC2)o1 (stereo not drawn),-,6.416
Cc1cnn(CC2CN(CC(=O)Nc3sccc3C#N)CCO2)c1 (stereo not drawn),-,1.274
O=C(O)C(F)(F)F.[H][C@@]12CCN(c3ncccn3)C[C@]1([H])CN(C(=O)CC(C)C)C2,-21.72,-25.15
COc1ncccc1CNCc1cnc(N2CCOCC2)nc1,-13.8,-8.069
Br.Cn1nccc1CN1CCOC(c2cccc(-c3cncnc3)n2)C1 (stereo not drawn),13.83,-15.3
CCN1CC2(CCC1=O)CCN(C(=O)c1ccc(Cl)cc1O)CC2,-15.31,-11.16
COCC1CN(Cc2ccoc2)Cc2nnn(C)c21.O=C(O)C(F)(F)F (stereo not drawn),10.72,15.07
NC(=O)CCSc1n[nH]c(-c2ccc3c(c2)CCC3)n1,8.887,5.127
CN(C)Cc1cn(CC2CCCN(c3nccc4occc34)C2)nn1 (stereo not drawn),-,-17.79
CC1N(c2cnn(C)c2)C(=O)COC12CCN(Cc1ccoc1)CC2 (stereo not drawn),-26.8,19.77
Cc1ccsc1S(=O)(=O)N1CCc2c(c(C(=O)O)nn2CC2CC2)C1,2.112,14.37
CO[C@@H]1CCN(c2ncc(F)cn2)[C@H]1Cc1cnn(C)c1,23.86,-0.9939
O=C(O)C(F)(F)F.[H][C@]12CCN(C(=O)c3cccs3)C[C@@]1([H])OCCN(C1CCOCC1)C2,-2.737,38.06
O=C(NCc1ccncc1)c1ccc(Cl)cc1F,-30.05,15.74
O=C(O)c1cc(-c2ccccc2)ns1,20.86,-30.93
CN(c1nc(Cn2cnccc2=O)cs1)C1CC1,-,7.243
O=C(O)C(F)(F)F.[H][C@]12CCN(C(=O)CC(C)(C)C)CC[C@@]1([H])S(=O)(=O)CCN2C,12.99,-1.789
CCN(C)S(=O)(=O)N[C@H]1CN(c2ccc(F)cn2)C[C@@H]1C(C)C,-,-124.1
Cn1cc(N2CCC3(CCCN(Cc4ccc(F)cc4)C3)C2=O)cn1.O=C(O)C(F)(F)F (stereo not drawn),10.51,-14.44
COc1cc(C)cc(C(C(=O)O)N(C)Cc2ccon2)c1OC (stereo not drawn),-41.37,14.77
COCCN(C)CCN1CC2(CCN(C3CCSC3)CC2)OC1=O (stereo not drawn),4.003,10.28
COc1ccc(CN2CCn3c(CNS(C)(=O)=O)nnc3C2)cc1,-15.25,-10.51
CC(C)CCC(=O)N1CCC(c2nnc(CN(C)CCO)n2C)CC1,12.16,-20.91
CC(C)=CCN1CCN(Cc2cc(C)n[nH]2)CC1CCO (stereo not drawn),-18.86,-22.11
CCOC(=O)CNC(=O)NCc1cccn1Cc1ccccc1,43.2,13.71
CN(C)C(=O)CN1CCC2(CC1)COc1ccccc1S(=O)(=O)N(C)C2.O=C(O)C(F)(F)F,-,-19.84
Cn1cc(C(C)(O)CNc2ccc(Cl)c(C#N)n2)cn1 (stereo not drawn),-3.727,-20.17

From ChEMBL document CHEMBL3988442, “University of Dundee, Small-Polar-MMV Screening Library” (2021).